Values quoted from earlier work in US20070173463A1, “Method and composition for treating otitis media” (priority 2006, published 2007).

Details: topical use in the ear; cited from earlier work

O=C(O)c1cn(C2CC2)c2cc(N3CCNCC3)c(F)cc2c1=O [ciprofloxacin]
toxicity for the inner ear (ototoxicity): demonstrated lack of toxicity for the inner ear
